What follows is the remainder of the data, with few or none of the targets with a hit. The data scatter; read single values as rough. The list shows a part of the results, in another mix than the full data.
These targets were tested with COC(=O)/C=C/c1ccccc1 [methyl cinnamate] (assay: log2 ratio of iodoacetamide-alkyne labeling of the cysteine site, DMSO over compound (competition); higher = stronger covalent engagement of the cysteine by the compound, active = 1 or more). Conditions: 500 µM; treatment time 1 h; system: HEK293T cell lysate.
Summary of the method: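 Reporter intensities give each cysteine's log2 competition ratio as the mean of control channels over the mean of compound channels. The samples were HEK293T lysate (2 mg/mL) given vehicle or electrophile (500 µM, 1 h, ambient temperature), then iodoacetamide alkyne (1 h), followed by click coupling to sCIP-TMT reagents, pooling, trypsin digestion overnight at 37 °C, streptavidin enrichment, acid elution, Orbitrap Eclipse LC-MS/MS with FAIMS and FragPipe quantification. Duplicate channels and three replicates were run, and cysteines quantified in only one replicate were discarded.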

Chains of the proteins cited; added tags and fusions are not shown. Lines headed by an entry give the natural chain unless they say otherwise; changes in a name come on top.
UniProt Q01082, whole entry, looked up: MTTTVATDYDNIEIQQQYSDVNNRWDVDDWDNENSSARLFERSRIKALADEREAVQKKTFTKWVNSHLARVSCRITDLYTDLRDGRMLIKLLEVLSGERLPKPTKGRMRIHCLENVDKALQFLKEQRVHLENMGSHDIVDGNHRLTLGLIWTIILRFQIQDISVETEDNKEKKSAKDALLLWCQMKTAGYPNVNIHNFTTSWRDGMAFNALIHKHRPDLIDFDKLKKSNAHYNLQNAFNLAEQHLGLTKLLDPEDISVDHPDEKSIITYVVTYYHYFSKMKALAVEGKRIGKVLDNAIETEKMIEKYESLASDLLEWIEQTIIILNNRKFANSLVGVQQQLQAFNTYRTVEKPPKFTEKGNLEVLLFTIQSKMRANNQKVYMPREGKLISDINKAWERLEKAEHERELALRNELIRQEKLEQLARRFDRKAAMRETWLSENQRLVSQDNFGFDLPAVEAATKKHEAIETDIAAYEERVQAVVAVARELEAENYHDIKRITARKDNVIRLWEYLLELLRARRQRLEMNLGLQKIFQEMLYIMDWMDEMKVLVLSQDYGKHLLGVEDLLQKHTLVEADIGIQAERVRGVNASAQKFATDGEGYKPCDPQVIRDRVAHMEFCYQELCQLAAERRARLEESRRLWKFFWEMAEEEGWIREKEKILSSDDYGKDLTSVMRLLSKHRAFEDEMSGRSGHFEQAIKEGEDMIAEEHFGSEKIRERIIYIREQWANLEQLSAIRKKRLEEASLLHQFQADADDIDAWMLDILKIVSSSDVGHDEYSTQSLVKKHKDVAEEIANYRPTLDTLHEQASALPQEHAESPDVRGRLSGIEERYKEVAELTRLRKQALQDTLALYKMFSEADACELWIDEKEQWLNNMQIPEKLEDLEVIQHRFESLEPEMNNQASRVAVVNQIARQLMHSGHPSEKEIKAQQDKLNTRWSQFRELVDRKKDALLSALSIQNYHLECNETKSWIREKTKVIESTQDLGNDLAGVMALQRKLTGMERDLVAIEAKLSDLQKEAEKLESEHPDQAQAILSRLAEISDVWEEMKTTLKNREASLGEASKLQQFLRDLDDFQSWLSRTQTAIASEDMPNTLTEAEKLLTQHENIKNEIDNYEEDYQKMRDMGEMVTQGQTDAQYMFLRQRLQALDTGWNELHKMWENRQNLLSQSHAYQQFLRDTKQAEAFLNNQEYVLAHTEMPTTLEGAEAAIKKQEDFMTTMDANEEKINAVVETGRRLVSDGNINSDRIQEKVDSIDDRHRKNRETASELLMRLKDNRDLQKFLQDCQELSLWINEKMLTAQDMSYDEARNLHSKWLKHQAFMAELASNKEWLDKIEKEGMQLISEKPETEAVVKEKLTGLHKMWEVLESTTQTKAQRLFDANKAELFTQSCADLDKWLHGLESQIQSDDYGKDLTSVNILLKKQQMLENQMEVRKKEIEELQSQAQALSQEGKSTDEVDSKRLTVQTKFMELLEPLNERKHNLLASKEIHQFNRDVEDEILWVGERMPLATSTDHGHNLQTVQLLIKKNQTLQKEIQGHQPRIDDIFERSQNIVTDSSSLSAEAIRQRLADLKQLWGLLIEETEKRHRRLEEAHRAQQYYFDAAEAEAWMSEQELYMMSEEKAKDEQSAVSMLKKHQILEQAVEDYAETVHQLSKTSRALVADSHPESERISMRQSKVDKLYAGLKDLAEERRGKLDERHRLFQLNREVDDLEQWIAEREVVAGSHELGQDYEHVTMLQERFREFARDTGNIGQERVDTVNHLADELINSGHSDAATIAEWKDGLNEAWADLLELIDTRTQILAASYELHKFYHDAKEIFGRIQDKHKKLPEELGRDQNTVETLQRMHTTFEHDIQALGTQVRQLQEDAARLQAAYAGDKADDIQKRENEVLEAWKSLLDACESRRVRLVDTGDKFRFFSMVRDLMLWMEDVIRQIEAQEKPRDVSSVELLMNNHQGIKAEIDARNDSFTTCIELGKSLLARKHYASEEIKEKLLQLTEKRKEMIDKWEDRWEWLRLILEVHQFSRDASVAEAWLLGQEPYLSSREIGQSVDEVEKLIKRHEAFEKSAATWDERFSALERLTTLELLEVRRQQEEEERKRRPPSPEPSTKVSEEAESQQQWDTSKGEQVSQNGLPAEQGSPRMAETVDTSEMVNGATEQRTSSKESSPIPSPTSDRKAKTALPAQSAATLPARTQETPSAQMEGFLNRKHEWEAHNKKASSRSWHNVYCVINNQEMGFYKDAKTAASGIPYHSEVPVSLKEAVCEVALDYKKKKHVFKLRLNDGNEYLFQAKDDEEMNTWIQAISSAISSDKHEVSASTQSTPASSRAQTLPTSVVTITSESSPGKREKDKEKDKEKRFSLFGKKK
UniProt Q01850: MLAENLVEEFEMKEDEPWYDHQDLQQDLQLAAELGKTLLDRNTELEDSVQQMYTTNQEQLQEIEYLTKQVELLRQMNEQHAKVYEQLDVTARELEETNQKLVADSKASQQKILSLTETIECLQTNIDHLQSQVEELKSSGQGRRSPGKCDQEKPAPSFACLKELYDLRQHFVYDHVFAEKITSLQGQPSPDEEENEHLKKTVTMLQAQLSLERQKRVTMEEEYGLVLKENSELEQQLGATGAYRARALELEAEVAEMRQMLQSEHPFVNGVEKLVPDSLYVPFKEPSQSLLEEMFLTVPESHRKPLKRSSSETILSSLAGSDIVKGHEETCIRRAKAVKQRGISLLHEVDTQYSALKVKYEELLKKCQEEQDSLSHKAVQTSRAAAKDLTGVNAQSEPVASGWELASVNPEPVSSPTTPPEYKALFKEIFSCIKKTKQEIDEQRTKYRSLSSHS
UniProt Q02218: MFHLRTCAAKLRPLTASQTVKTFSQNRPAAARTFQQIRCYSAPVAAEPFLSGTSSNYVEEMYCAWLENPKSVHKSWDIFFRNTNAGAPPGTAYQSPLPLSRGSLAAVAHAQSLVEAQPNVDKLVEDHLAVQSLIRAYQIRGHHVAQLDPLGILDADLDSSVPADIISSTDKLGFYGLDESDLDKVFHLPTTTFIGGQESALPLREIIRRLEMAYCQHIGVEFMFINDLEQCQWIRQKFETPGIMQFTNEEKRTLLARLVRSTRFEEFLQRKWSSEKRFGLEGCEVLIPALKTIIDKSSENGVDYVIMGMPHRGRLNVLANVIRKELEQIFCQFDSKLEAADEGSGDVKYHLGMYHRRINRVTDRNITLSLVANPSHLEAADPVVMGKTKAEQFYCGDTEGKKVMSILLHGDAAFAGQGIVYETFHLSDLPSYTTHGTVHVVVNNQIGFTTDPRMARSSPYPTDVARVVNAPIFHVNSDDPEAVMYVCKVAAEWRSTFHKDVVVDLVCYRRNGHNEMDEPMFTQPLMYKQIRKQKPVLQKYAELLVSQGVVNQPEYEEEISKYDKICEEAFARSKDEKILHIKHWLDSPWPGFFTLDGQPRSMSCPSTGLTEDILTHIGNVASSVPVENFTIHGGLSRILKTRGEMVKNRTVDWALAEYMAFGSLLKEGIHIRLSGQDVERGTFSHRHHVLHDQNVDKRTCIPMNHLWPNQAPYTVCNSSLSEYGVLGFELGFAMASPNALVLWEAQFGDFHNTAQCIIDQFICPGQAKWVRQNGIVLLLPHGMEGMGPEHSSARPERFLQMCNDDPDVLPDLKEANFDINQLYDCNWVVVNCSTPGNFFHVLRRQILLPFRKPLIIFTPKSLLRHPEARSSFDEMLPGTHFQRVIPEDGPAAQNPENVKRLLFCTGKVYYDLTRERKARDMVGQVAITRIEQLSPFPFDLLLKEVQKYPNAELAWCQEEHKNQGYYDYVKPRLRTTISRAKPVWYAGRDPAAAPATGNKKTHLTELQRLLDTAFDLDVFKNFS
UniProt P68363, whole entry, looked up: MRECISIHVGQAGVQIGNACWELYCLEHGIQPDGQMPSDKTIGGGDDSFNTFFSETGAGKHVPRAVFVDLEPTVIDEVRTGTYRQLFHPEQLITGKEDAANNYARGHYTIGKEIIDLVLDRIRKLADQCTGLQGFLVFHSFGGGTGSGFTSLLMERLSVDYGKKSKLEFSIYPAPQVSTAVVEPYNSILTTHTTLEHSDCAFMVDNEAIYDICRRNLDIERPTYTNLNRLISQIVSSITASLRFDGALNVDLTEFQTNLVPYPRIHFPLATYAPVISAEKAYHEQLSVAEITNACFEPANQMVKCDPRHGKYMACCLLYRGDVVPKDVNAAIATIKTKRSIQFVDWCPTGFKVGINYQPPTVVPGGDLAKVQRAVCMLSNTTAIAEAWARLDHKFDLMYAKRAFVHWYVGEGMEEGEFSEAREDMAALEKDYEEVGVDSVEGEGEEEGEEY
UniProt Q01780: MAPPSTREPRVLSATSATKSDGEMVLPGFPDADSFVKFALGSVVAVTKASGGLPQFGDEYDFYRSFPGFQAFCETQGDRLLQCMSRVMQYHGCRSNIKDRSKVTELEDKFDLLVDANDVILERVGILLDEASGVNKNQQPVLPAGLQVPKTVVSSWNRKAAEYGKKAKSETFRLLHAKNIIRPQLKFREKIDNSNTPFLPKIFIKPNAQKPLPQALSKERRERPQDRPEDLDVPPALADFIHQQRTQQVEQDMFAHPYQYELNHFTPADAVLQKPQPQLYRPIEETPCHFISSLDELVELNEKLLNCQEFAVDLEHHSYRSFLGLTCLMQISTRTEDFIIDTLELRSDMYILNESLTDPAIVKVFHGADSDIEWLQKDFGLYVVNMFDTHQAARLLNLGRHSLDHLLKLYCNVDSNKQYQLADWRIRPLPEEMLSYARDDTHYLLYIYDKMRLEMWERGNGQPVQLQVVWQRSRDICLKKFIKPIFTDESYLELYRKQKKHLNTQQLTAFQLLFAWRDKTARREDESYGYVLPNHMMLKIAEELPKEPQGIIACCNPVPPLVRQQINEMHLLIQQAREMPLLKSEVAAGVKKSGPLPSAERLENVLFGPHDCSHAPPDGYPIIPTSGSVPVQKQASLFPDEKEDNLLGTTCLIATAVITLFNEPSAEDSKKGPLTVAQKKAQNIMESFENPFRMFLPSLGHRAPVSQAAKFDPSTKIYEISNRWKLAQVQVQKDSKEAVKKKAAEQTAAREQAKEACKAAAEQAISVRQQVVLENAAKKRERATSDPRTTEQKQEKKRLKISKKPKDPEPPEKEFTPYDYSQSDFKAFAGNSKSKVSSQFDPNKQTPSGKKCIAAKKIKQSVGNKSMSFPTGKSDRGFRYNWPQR
UniProt P68104, whole entry, looked up: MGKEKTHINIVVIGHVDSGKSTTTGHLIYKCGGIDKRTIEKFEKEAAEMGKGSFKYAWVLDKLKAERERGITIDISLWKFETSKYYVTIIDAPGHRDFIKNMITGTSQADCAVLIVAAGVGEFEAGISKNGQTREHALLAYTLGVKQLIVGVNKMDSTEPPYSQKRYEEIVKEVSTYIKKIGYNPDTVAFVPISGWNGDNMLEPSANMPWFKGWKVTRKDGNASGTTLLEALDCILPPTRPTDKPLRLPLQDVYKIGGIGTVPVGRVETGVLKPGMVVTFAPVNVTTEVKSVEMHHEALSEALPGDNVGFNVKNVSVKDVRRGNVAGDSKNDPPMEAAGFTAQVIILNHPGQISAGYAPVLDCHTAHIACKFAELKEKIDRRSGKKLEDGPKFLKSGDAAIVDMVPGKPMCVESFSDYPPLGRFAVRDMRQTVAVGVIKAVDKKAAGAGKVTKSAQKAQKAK
UniProt P78368: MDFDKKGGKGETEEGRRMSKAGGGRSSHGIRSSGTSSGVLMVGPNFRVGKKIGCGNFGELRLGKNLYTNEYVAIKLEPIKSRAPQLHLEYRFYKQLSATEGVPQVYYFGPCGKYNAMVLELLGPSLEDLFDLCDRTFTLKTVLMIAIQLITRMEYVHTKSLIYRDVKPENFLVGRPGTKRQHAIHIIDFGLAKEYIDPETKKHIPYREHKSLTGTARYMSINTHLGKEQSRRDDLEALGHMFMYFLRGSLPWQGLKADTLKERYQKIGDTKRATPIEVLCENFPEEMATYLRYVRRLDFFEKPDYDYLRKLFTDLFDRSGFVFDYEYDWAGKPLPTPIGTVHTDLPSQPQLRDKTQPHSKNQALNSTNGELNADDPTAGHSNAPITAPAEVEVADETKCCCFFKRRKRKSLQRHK
UniProt P78417: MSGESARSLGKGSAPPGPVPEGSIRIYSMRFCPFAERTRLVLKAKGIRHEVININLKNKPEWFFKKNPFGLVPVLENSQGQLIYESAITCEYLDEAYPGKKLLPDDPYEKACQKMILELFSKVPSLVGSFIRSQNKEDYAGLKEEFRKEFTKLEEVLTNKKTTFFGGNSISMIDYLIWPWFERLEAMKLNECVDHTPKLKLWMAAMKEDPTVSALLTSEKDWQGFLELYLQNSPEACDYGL
UniProt P78549: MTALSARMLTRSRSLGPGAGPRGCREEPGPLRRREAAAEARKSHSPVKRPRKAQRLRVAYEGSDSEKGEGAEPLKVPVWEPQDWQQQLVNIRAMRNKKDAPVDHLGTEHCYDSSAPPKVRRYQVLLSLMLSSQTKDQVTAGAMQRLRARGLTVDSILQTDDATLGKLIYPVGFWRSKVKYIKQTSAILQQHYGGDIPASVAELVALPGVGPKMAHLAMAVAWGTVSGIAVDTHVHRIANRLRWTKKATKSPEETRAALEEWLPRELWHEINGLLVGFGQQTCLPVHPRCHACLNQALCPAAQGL

log2 ratio of iodoacetamide-alkyne labeling, inactive:
HNRNPU C389 (UniProt Q00839) 0.788
MRPS9 C233 (UniProt P82933) 0.296
RPL10A C164 (UniProt P62906) -0.0529
PFKP C360 (UniProt Q01813) 0.191
SRPK2 C320 (UniProt P78362) 0.214
UniProt P62753_C100 0.143
UniProt P62913_C150 0.27
UniProt P62318_C20 -0.0218
UniProt P62913_C72 0.0632
UniProt P62280_C116 0.232
UniProt P62913_C25 0.16
CLTC C1528 (UniProt Q00610) 0.0255
PPIA C161 (UniProt P62937) 0.0201
SPTBN1 C1284 (UniProt Q01082) 0.122
FOXK1 C665 (UniProt P85037) 0.366
ATP2C1 C162 (UniProt P98194) 0.0601
CDR2 C121 (UniProt Q01850) -0.135
UniProt P63244_C153 0.245
OGDH C283 (UniProt Q02218) 0.0413
UniProt P68363_C129 -0.0648
EXOSC10 C83 (UniProt Q01780) -0.0183
UniProt P62330_C90 0.0849
EEF1A1 C370 (UniProt P68104) -0.172
RPL10A C66 (UniProt P62906) -0.0333
UniProt P84085_C62 0.211
UniProt P78527_C2093 0.0397
SPTBN1 C1900 (UniProt Q01082) -0.145
UniProt P78368_C54 0.0383
MPP1 C242 (UniProt Q00013) 0.287
EEF1A1 C411 (UniProt P68104) 0.322
HNRNPU C607 (UniProt Q00839) 0.215
GSTO1 C32 (UniProt P78417) 0.209
UniProt P62987_C91 0.241
GTF2I C80 (UniProt P78347) 0.232
NTHL1 C290 (UniProt P78549) -0.0758
HMGCS1 C268 (UniProt Q01581) 0.0842
CAP1 C93 (UniProt Q01518) 0.109

At a glance, part of the list above:
log2 ratio of iodoacetamide-alkyne labeling, inactive:
UniProt P62913_C72 0.0632
UniProt P62280_C116 0.232
UniProt P62913_C25 0.16

Source: the supplement of paper PMC11006884
